# Assay results as given in PMC12575849.
# Chains of the proteins cited; added tags and fusions are not shown.
# UniProt O14646: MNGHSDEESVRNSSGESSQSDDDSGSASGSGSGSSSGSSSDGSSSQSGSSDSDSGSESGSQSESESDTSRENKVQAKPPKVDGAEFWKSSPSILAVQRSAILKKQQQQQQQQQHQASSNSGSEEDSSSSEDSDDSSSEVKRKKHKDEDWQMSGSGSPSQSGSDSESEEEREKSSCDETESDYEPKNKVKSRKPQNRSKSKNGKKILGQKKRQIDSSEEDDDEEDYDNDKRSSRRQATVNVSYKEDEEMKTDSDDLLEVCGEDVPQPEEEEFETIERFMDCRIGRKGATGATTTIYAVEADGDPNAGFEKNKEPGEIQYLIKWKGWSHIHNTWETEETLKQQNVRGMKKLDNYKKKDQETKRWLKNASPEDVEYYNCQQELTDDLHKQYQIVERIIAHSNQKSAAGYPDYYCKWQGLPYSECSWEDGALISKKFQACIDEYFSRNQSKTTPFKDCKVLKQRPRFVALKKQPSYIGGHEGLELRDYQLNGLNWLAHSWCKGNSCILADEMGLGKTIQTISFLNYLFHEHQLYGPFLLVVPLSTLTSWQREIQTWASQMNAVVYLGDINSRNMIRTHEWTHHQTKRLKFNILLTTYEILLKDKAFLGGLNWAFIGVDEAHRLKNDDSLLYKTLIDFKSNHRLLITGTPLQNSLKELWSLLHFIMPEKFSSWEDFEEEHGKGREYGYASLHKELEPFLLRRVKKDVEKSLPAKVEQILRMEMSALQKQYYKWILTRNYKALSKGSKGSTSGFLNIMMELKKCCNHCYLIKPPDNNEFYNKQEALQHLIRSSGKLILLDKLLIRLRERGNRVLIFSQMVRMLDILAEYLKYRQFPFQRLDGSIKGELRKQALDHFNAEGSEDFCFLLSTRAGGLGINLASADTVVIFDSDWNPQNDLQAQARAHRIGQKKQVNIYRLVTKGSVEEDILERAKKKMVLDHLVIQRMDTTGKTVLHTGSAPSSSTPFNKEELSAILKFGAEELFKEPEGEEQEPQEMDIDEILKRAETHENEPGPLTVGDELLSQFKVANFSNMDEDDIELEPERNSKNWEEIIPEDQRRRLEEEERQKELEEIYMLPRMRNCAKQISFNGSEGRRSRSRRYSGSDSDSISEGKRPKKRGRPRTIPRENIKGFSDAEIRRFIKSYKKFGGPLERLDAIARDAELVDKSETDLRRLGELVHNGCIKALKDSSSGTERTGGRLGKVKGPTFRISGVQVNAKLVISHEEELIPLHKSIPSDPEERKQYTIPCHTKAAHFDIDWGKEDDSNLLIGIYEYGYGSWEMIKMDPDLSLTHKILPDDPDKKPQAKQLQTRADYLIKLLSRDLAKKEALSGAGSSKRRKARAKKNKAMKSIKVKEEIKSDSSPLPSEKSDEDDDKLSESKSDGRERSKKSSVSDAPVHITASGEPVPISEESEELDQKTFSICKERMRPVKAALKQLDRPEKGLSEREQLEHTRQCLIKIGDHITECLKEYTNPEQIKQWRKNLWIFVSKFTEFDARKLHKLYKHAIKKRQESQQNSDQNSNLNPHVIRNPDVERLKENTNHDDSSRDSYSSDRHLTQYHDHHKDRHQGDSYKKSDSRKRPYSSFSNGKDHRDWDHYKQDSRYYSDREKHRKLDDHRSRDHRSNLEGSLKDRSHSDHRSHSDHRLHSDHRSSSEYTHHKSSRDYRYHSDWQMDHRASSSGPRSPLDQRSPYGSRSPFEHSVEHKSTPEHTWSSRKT
# UniProt Q15022: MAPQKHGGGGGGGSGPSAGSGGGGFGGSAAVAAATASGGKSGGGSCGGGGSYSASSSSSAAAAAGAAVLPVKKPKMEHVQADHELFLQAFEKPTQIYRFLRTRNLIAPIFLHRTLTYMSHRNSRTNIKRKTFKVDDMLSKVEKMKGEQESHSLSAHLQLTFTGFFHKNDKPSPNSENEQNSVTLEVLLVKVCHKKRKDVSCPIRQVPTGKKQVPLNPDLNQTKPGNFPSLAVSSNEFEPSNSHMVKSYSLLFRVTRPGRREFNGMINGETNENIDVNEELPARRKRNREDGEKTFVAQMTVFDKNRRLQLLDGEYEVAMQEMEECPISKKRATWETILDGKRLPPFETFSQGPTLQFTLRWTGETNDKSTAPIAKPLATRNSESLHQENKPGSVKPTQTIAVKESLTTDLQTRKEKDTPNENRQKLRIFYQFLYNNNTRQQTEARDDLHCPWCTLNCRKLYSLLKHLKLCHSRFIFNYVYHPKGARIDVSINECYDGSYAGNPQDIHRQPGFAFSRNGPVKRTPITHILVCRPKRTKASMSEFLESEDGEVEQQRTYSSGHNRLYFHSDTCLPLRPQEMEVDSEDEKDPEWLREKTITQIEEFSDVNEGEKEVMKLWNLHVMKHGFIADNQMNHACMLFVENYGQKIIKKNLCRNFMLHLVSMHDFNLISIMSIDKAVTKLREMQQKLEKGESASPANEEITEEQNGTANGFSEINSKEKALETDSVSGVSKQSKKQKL
# Results are given in words; binding and its absence hold for the method and conditions named. In cells and extracts the contact can be indirect. Some entries that bind do so weakly or less than the wild type.
# Molecular target: CHD1^WT-Venus (chromodomain helicase DNA-binding 1, wild type) (human) (UniProt O14646)
# Test: proximity ligation; Duolink PLA in fixed, permeabilised CHD1KO mCAT HeLa cells with exogenous CHD1-Venus; anti-GFP and anti-SUZ12 primary antibodies; nuclear signals counted in 30 cells, two independent experiments
substance,measurement,value
SUZ12 (from UniProt Q15022 1-739),binding,binds
